{"source": "patent EP4595966A1", "about": "“USE OF NPY/Y5R INHIBITOR IN TREATING LIVER METASTASIS” (Friedrich-Alexander-Universität Erlangen-Nürnberg, priority 2024, dated 2025)", "tested_on": "B16 melanoma cells (liver metastasis)", "experiment": "Spleen-liver metastasis model with Y5R inhibitor treatment", "assay_type": "in vivo, C57BL/6 mice", "text": "• Figure 1 A-B. Boyden chamber analysis and representative images (10-fold original magnification) of chemotaxis of human melanoma cells (SkMel28) towards recombinant NPY (lower chamber) with or without application of Y5R specific inhibitor CGP71683 (Y5Ri) (upper chamber) compared to migration towards serum free medium (n = 9). Arrowheads indicate migrated cells. • Figure 2. Representative images of colony number and colony size of human melanoma cells (SkMel28) in clonogenicity assays with application of increasing concentrations of Y5R inhibitor (Y5Ri) (n = 3). • Figure 3. Schematic illustration of the experimental procedure: splenic injection of murine melanoma cells (B16) in C57BL/6 mice on day 0; intraperitoneal injection of Y5R inhibitor CGP71683 (Y5Ri) (15 mg/kg body weight per injection) or solvent only (DMSO) as control on indicated days; end of experiment eight days after cell implantation. • Figure 4. Explanted metastases bearing spleens and livers of DMSO (control) and Y5Ri treated mice after splenic injection of B16 melanoma cells. • Figure 5. Macroscopic classification of livers from DMSO (n = 11) and Y5Ri treated mice (n = 9) into very low / low versus moderate / high liver metastasis. • Figure 6. A. CHK2 level in NPY^-/- mice compared to control WT mice measured by IHC analysis. B. CHK2 level in Y5Ri-treated mice compared to control DMSO-treated mice measured by IHC analysis. • Figure 7. […] A. Quantification of NPY mRNA expression levels in liver tissues from mice treated with control LNPs (\"Control\", LNPs bearing control siRNA pool, n = 11) and from mice treated with LNPs bearing siRNA pool targeting murine NPY (\"LNP-siNPY\", n = 11). B. Quantification of NPY protein levels in liver tissues from mice treated with control LNPs (n = 11) and LNP-siNPY treated mice (n = 11). • Figure 9 A-B. ELISA based protein expression analysis of absolute NPY levels in liver tissues and serum samples from LNP-siNPY treated mice (n = 10) compared to mice treated with control LNPs (LNPs bearing control siRNA pool, n = 11) after splenic melanoma cell injection. • Figure 10. […] A. Quantification of number of metastases in liver tissues from LNP-siNPY treated mice (n = 10) compared to mice treated with control LNPs (LNPs bearing control siRNA pool, n = 11). B. Quantification of metastases size in liver tissues from LNP-siNPY treated mice (n = 10) compared to mice treated with control LNPs (LNPs bearing control siRNA pool, n = 11). • Figure 13. […] A. Quantification of pERK protein expression in metastatic liver tissue samples of LNP-siNPY treated mice (n = 6) compared to mice treated with control LNPs (LNPs bearing control siRNA pool, n = 6). […]"}
{"smiles": "Nc1nc(NC[C@H]2CC[C@H](CNS(=O)(=O)c3cccc4ccccc34)CC2)nc2ccccc12", "note": "[Y5Ri, N-[[trans-4-[[(4-amino-2-quinazolinyl)amino]methyl]cyclohexyl]methyl]-1-naphthalenesulfonamide]", "values": [{"measurement": "Y2R and Y5R expression levels in liver metastatic tissues", "setting": "mRNA levels", "value": "did not affect"}, {"measurement": "immunohistochemical staining of CD3, CD4 and CD8 of liver metastatic tissues (immune cell infiltration/inflammation)", "setting": "treated mice vs controls", "value": "no evidence for NPY-Y5R-signaling associated effects on immune cell infiltration/inflammation"}, {"measurement": "NPY and Y1R expression in liver metastatic tissues", "setting": "upon Y5Ri treatment", "value": "upregulated"}, {"measurement": "systemic NPY levels", "setting": "upon Y5Ri treatment", "value": "upregulated"}]}
